{"sequences": {"note": "Protein sequences, listed by entry. Tags and fused reporters are not part of them. Residues count along the entry.", "UniProt P35968, 20-1356, species assumed": "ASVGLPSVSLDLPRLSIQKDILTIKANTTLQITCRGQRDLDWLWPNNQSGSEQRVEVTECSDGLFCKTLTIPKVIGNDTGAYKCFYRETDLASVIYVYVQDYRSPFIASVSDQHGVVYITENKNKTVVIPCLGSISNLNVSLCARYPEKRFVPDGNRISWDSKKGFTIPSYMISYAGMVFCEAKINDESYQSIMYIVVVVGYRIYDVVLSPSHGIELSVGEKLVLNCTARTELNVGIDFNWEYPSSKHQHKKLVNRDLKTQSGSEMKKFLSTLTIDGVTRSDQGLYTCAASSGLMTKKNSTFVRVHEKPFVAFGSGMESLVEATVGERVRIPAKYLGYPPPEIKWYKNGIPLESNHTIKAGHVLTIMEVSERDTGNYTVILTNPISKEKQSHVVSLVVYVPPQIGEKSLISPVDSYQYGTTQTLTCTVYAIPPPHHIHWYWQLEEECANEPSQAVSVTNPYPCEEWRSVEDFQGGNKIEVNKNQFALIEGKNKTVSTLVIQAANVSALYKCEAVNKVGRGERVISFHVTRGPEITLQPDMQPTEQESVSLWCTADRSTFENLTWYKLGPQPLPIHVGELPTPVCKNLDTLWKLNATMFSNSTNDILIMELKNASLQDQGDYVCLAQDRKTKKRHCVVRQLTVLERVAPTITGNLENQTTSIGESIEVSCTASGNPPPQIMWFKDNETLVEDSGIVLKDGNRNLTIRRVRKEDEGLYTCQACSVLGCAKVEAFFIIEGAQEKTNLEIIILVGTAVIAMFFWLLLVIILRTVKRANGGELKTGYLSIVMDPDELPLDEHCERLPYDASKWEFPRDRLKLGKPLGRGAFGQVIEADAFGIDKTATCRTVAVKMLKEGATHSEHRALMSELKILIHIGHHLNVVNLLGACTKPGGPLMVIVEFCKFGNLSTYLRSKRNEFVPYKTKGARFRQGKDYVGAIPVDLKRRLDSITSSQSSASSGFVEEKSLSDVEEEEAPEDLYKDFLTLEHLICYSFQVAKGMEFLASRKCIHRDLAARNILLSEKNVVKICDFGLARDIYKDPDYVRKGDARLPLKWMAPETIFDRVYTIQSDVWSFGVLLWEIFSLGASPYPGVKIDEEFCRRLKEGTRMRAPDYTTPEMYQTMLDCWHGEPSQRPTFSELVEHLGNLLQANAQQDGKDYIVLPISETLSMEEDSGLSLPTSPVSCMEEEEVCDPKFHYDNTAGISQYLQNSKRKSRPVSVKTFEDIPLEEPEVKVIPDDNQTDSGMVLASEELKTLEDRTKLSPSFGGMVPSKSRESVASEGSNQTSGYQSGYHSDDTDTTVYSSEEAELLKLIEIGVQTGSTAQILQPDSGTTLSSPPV"}, "source": "patent US20230089914A1", "about": "(Clearside Biomedical, Inc., priority 2020, published 2023)", "origin": "cited, not measured here", "molecular_target": "VEGFR-2 (Homo sapiens, UniProt P35968)", "conditions": "most common metabolites of axitinib; cited from earlier work", "note": "Some results were stated once for a whole list of compounds, not compound by compound. At least one compound was matched to its structure with a doubt left."}
{"compound": "CNC(=O)c1ccccc1Sc1ccc2c(C=Cc3ccccn3)nn(C3OC(C(=O)O)C(O)C(O)C3O)c2c1", "note": "(centres unmarked) [M7]", "values": [{"measurement": "less potent against VEGFR-2 (than axitinib)", "result": "≥ 400", "unit": "fold"}]}
{"compound": "CNC(=O)c1ccccc1[S+]([O-])c1ccc2c(C=Cc3ccccn3)n[nH]c2c1", "note": "(centres unmarked) [M12]", "values": [{"measurement": "less potent against VEGFR-2 (than axitinib)", "result": "≥ 400", "unit": "fold"}]}
